# PubChem BioAssay AID1224826, NIAID – 2016
# Screen: 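Knock-downs that raise or lower Tnf reporter signal after endotoxin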 (primary screen)
# System: RAW264.7 G9 macrophages from mouse bearing reporters for p65 (GFP) and the Tnf promoter (mCherry)
# Reagents: siRNA pool against mouse genes, 100 nM
# Timing: 16 h of LPS stimulation, after 2 days of siRNA transfection
# Challenge: bacterial lipopolysaccharide (Salmonella minnesota R595), 10 ng/ml
# Measurement: 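Nuclear mCherry signal of the Tnf promoter reporter measured by imaging after background removal, scaled to each plate median and turned into robust z-scores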
# Scale: Tnf reporter robust z-score: higher = stronger Tnf promoter reporter signal after LPS; Tnf reporter intensity: higher = stronger Tnf promoter reporter signal
# Rule for the call: 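a well counts as active at a score of -1.3 or below (Tlr4 knock-down control median) or above 3 (raised signal); controls and wells holding fewer than 50 cells are excluded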
# Meaning of the calls: active = Tnf reporter clearly lowered or raised; inactive = no clear change in Tnf reporter
# Here is a random part of about 17,000 reagents tested. About 1,110 of them (6.6%) were called active. 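Active means lowered or raised reporter signal; replicate intensities are raw and not normalised per plate.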 Some reagents were tested in more than one well and are listed for each.
gene symbol,Tnf reporter robust z-score,fewer than 50 cells in well,"Tnf reporter intensity, replicate 1","Tnf reporter intensity, replicate 2",Call
Ptges3 (GeneID 56351),-0.23,enough cells in well,269,89.5,inactive
Mrps27 (GeneID 218506),1.17,enough cells in well,329,141,inactive
Apba2 (GeneID 11784),0.2,enough cells in well,206,153,inactive
Acyp1 (GeneID 66204),0.23,enough cells in well,180,184,inactive
Magi3 (GeneID 99470),-1.15,enough cells in well,116,93,inactive
Magi3 (GeneID 99470),,fewer than 50 cells per well; well left out of calls,132,57.1,inactive
Tmem186 (GeneID 66690),,fewer than 50 cells per well; well left out of calls,111,32.8,inactive
E130114P18Rik (GeneID 319865),1.75,enough cells in well,398,117,inactive
Gpr3 (GeneID 14748),,fewer than 50 cells per well; well left out of calls,90.2,256,inactive
Faah (GeneID 14073),0.29,enough cells in well,277,225,inactive
Acot5 (GeneID 217698),-1.83,enough cells in well,65.4,95.1,active
Il3ra (GeneID 16188),0.64,enough cells in well,260,205,inactive
Lst1 (GeneID 16988),-1.1,enough cells in well,133,80.7,inactive
Gp2 (GeneID 67133),0.36,enough cells in well,289,175,inactive
Pzp2 (GeneID 11287),0.14,enough cells in well,141,130,inactive
Gucy2e (GeneID 14919),-0.4,enough cells in well,200,111,inactive
Camk1g (GeneID 215303),1.09,enough cells in well,285,202,inactive
Derl1 (GeneID 67819),1.34,enough cells in well,343,122,inactive
Plcd1 (GeneID 18799),0.91,enough cells in well,277,290,inactive
C9 (GeneID 12279),-0.19,enough cells in well,131,158,inactive
Prph (GeneID 19132),-0.62,enough cells in well,75.2,97.4,inactive
1700084P21Rik (GeneID 73498),0.45,enough cells in well,264,97.3,inactive
9630013D21Rik (GeneID 319743),,fewer than 50 cells per well; well left out of calls,135,90.2,inactive
Wnk3 (GeneID 279561),0.35,enough cells in well,271,132,inactive
Chrnb1 (GeneID 11443),0.13,enough cells in well,299,177,inactive
Actr1b (GeneID 226977),2.1,enough cells in well,277,301,inactive
Ulk4 (GeneID 209012),-1.57,enough cells in well,81.4,70.9,active
Nup188 (GeneID 227699),-0.51,enough cells in well,162,81.3,inactive
Trim36 (GeneID 28105),,fewer than 50 cells per well; well left out of calls,69.1,105,inactive
Zfp143 (GeneID 20841),0.76,enough cells in well,294,282,inactive
Sparc (GeneID 20692),0.24,enough cells in well,292,241,inactive
Nrg4 (GeneID 83961),-1.22,enough cells in well,118,52.8,inactive
Pds5b (GeneID 100710),-0.09,enough cells in well,116,218,inactive
Galnt5 (GeneID 241391),-1.98,enough cells in well,84.5,69.8,active
Tnfsf13 (GeneID 69583),,fewer than 50 cells per well; well left out of calls,0,6.52,inactive
Defa-rs12 (GeneID 13221),-0.57,enough cells in well,205,87.3,inactive
Rbm15b (GeneID 109095),,fewer than 50 cells per well; well left out of calls,297,85.6,inactive
Gpn1 (GeneID 74254),0.85,enough cells in well,121,205,inactive
Pde3b (GeneID 18576),-0.45,enough cells in well,210,151,inactive
Mrpl30 (GeneID 107734),1.22,enough cells in well,318,151,inactive

Records listed so far called active:
gene symbol,Tnf reporter robust z-score,fewer than 50 cells in well,"Tnf reporter intensity, replicate 1","Tnf reporter intensity, replicate 2",Call
Acot5 (GeneID 217698),-1.83,enough cells in well,65.4,95.1,active
Ulk4 (GeneID 209012),-1.57,enough cells in well,81.4,70.9,active
Galnt5 (GeneID 241391),-1.98,enough cells in well,84.5,69.8,active
